Results taken from article doi:10.1101/2023.02.07.527441.
Results are given in words; binding and its absence hold for the method and conditions named.

Molecular target: E. coli DsbA (E. coli) (UniProt P0AEG4)
Assay: SEC

B1: E. coli DsbA (enzyme, UniProt P0AEG4 20-208)
chain: AQYEDGKQYTTLEKPVAGAPQVLEFFSFFCPHCYQFEEVLHISDNVKKKLPEGVKMTKYHVNFMGGDLGKDLTQAWAVAMALGVEDKVTVPLFEGVQKTQTIRSASDIRDVFINAGIKGEEYDAAWNSFVVKSLVAQQEKAAADVQLRGVPAMFVNGKYQLNPQGMDTSNMDVFVQQYADTVKYLSEKK
With B1 the binding was “no binding (tested: 1.25 mg ml^-1)”.
